# Assay results: the supplement of paper PMC12595434, “Development of retinoid nuclear receptor pathway antagonists through targeting aldehyde dehydrogenase 1A3” (iScience, 2025)
# Sequences of proteins named here, by UniProt entry; tags and fusion partners are left off. A change or cut given only in a name is not applied to a line headed by its entry.
# UniProt Q9Y316: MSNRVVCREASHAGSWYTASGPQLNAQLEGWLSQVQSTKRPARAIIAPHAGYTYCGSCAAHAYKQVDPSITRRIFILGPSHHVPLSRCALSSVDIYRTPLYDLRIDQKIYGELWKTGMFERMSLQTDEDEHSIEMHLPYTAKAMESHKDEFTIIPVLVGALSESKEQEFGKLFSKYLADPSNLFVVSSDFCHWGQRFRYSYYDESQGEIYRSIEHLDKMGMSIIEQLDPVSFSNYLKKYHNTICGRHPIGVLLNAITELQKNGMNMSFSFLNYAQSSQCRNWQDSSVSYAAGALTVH
# UniProt Q9Y2X3: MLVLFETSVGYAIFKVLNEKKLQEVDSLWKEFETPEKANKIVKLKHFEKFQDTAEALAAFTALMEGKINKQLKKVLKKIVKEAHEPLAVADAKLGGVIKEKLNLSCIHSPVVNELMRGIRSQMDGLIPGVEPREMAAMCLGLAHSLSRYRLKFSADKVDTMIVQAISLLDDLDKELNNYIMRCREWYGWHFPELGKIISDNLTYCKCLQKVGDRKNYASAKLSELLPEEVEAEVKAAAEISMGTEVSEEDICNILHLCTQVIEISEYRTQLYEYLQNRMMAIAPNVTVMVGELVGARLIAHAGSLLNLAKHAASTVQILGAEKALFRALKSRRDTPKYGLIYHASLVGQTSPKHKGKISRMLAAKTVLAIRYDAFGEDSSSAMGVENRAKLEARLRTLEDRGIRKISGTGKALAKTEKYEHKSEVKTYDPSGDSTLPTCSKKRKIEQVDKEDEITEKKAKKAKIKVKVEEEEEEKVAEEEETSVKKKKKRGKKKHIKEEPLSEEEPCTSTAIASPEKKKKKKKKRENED
# UniProt Q9Y3E7, whole entry: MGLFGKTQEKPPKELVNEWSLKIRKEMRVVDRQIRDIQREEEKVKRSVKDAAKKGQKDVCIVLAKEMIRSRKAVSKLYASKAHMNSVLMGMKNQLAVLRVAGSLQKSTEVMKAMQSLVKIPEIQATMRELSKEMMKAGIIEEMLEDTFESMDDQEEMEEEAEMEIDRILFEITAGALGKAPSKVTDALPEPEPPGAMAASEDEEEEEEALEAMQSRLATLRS
# UniProt Q9Y520: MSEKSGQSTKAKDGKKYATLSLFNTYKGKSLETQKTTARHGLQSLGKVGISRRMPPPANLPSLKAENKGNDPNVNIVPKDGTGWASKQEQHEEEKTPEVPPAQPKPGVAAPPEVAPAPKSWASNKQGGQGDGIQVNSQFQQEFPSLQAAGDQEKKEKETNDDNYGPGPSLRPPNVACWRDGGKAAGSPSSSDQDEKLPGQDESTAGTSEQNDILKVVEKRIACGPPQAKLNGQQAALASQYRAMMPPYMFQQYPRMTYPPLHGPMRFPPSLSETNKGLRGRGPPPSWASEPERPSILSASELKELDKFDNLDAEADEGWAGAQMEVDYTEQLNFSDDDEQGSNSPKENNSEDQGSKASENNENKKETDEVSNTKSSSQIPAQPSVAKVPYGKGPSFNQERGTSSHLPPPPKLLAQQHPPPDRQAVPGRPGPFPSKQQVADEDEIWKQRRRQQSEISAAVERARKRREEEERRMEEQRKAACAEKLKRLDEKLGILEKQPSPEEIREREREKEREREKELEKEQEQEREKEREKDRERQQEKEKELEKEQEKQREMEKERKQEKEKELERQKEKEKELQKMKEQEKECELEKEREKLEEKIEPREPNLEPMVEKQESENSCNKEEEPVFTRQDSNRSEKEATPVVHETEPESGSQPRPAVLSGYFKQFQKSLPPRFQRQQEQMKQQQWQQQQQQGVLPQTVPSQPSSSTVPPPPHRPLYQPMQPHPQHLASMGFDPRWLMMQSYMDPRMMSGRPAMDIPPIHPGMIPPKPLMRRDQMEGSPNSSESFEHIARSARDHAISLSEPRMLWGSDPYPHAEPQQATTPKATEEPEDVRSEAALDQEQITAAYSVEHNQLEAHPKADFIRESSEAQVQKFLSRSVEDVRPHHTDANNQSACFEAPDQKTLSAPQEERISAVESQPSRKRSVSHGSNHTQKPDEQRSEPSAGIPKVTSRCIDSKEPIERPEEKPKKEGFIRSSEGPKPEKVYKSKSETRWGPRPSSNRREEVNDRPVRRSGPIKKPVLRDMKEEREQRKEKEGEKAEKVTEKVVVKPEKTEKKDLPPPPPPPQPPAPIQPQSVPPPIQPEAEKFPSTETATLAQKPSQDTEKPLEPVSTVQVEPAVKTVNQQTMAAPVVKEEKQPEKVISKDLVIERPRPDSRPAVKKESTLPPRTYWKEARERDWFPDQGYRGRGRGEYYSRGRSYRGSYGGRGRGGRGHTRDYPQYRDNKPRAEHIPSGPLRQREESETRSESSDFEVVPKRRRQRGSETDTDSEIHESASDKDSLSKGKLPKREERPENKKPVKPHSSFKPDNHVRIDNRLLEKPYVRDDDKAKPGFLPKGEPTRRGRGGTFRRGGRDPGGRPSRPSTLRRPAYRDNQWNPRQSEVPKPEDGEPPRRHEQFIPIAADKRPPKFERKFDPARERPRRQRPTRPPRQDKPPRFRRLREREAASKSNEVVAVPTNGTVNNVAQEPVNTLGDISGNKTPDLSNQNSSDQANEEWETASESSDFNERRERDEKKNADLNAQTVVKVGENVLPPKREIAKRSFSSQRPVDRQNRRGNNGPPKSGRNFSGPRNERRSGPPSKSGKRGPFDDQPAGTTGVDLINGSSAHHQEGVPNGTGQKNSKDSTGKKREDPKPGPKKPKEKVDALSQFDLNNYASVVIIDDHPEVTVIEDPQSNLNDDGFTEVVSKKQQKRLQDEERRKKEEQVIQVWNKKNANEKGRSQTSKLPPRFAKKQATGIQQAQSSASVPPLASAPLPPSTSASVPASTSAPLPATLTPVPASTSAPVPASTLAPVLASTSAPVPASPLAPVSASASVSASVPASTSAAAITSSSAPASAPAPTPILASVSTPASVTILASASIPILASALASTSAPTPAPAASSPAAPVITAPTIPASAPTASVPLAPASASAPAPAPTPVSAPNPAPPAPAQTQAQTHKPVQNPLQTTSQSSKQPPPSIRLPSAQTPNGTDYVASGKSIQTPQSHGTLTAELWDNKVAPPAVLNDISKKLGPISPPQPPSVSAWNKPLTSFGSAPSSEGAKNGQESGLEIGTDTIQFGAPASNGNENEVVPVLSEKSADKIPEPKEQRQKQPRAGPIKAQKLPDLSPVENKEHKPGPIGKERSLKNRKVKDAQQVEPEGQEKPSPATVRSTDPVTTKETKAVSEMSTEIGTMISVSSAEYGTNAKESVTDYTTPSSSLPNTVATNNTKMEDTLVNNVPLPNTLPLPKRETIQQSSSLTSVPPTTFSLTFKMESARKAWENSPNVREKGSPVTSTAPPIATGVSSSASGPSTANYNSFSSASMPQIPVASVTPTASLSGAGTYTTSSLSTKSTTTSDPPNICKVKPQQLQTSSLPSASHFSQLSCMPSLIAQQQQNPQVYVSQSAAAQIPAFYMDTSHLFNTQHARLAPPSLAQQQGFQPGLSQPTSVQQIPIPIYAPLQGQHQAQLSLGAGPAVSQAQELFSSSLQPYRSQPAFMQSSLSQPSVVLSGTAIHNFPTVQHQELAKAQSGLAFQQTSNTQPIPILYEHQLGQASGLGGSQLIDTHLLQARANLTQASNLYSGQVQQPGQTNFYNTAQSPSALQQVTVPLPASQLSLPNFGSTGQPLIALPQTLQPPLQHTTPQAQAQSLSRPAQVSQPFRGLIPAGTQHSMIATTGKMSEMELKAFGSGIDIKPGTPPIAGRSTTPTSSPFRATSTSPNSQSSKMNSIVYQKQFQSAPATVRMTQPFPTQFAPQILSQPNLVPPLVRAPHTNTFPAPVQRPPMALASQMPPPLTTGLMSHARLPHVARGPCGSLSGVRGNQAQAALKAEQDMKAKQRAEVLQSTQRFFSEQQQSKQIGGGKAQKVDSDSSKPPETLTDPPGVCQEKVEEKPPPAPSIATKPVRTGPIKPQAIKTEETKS
# UniProt Q9Y5N6: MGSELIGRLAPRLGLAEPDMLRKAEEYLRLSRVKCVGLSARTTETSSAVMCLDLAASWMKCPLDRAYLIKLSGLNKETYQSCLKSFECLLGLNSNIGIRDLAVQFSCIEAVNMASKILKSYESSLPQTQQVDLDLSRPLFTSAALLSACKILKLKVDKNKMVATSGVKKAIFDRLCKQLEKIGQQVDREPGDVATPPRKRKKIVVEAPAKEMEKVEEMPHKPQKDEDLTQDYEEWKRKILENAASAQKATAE
# UniProt Q9Y383: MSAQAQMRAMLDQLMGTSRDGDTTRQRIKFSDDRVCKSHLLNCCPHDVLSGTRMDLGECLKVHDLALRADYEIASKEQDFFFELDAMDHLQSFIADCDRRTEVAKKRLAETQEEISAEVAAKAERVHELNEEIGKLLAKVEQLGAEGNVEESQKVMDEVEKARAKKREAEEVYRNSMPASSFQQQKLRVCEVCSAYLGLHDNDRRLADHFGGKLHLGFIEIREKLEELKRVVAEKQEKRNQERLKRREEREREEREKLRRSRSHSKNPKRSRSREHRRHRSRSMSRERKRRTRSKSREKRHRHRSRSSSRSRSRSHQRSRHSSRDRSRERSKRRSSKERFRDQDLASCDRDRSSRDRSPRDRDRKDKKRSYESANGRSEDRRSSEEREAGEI
# UniProt Q9Y2T7, whole entry: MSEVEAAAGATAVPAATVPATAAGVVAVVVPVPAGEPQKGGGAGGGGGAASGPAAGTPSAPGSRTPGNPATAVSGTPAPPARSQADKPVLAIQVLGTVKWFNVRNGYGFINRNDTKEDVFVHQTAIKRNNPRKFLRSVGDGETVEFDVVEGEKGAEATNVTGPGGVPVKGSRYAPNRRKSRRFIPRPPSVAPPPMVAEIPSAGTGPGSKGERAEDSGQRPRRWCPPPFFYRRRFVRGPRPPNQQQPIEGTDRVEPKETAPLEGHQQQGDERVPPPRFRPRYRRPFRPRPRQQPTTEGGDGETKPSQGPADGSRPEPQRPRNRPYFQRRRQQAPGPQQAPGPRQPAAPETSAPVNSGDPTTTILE
# UniProt Q9Y3B4: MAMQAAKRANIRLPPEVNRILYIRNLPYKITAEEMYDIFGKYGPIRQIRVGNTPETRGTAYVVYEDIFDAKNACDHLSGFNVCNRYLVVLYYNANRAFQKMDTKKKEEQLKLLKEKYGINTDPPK
# UniProt Q9Y4B4: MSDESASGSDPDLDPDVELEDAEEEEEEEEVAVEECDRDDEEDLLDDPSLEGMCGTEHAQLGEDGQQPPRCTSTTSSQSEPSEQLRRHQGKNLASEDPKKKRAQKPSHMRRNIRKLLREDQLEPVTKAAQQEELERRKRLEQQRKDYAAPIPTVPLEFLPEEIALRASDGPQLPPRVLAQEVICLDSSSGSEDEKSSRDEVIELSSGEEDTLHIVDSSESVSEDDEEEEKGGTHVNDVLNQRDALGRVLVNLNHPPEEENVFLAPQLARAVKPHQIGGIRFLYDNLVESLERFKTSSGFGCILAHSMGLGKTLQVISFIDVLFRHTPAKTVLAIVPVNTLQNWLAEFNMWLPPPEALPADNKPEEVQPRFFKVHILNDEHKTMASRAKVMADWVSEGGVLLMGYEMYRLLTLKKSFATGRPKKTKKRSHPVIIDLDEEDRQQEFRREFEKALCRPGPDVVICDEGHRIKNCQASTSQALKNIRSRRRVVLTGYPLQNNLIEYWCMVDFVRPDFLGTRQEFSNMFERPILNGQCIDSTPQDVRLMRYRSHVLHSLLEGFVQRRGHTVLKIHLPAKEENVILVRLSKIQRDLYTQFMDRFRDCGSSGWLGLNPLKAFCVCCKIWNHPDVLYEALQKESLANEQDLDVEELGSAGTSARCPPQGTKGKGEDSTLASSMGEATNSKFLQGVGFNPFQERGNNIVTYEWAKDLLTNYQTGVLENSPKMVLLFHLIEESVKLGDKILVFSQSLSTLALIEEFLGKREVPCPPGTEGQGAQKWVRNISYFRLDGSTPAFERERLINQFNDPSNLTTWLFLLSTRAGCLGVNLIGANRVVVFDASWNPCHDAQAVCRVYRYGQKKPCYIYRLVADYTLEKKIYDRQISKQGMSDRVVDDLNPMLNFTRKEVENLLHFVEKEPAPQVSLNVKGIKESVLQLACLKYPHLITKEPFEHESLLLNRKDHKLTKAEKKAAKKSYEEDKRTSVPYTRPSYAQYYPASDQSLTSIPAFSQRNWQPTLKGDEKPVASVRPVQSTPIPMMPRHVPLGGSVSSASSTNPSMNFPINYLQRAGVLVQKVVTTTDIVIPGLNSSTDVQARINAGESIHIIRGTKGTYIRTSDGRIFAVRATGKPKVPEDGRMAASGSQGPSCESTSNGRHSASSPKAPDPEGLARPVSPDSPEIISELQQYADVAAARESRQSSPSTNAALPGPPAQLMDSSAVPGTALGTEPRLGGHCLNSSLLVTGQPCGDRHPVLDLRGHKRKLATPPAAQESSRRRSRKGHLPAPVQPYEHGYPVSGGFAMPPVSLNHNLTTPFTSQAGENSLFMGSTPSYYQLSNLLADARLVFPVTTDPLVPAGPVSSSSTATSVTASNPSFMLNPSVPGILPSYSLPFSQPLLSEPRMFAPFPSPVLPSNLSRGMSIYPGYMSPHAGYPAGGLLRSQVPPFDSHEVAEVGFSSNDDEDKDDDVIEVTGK
# Some of the results follow. Single values of this set are uncertain.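 Many melting curves are irregular; where none melted, Tm was taken as 64 °C.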
# Compound: CCc1cnccc1C(=O)Nc1cc2c(cc1F)NC(=O)CC2
# Assay: melting temperature shift (DMSO Tm minus MBE1-treated Tm) in cellular thermal proteome profiling; higher = less thermal stabilization by MBE1 (negative = stabilized by MBE1)
# Settings: A375
Target,melting temperature shift (MBE1 concentration: 100 nM) [°C],melting temperature shift (MBE1 concentration: 1 uM) [°C]
SLC4A7 (UniProt Q9Y6M7),-0.865,0.852
LEMD3 (UniProt Q9Y2U8),-0.861,-0.247
ROBO1 (UniProt Q9Y6N7),–,-2.51
MEMO1 (UniProt Q9Y316),-1.11,0.134
CDC42BPB (UniProt Q9Y5S2),0.177,-0.0916
UniProt Q9Y3C7,-0.476,2.92
NCOR2 (UniProt Q9Y618),-2.82,-3.73
CEP170B (UniProt Q9Y4F5),-0.692,-0.8
UniProt Q9Y4F9,-0.923,-0.975
R3HCC1 (UniProt Q9Y3T6),-0.159,0.244
MED16 (UniProt Q9Y2X0),-0.476,0.22
UniProt Q9Y2R4,-0.218,0.00641
UniProt Q9Y3E1,-6.03,-2.84
MRPL42 (UniProt Q9Y6G3),-3.93,1.16
FARP1 (UniProt Q9Y4F1),0.458,0.769
UniProt Q9Y6C2,-0.461,0.617
LSM2 (UniProt Q9Y333),-5.27,-6.21
UniProt Q9Y2J4,1.15,1.37
UniProt Q9Y4K1,-0.348,-0.528
UCHL5 (UniProt Q9Y5K5),-0.616,-0.292
KDM3A (UniProt Q9Y4C1),-0.901,-0.484
FAM32A (UniProt Q9Y421),–,2.19
LSM5 (UniProt Q9Y4Y9),–,-3.39
DOPEY2 (UniProt Q9Y3R5),–,1.21

Target,melting temperature shift (MBE1 concentration: 100 nM) [°C],melting temperature shift (MBE1 concentration: 1 uM) [°C]
UniProt Q9Y4X4,-3.84,-0.0977
TSSC4 (UniProt Q9Y5U2),0.653,1.03
PPME1 (UniProt Q9Y570),-0.833,-0.00611
SLC30A1 (UniProt Q9Y6M5),–,-2.35
DIS3 (UniProt Q9Y2L1),-0.442,-0.0705
UniProt Q9Y388,-0.598,-0.922
NOP58 (UniProt Q9Y2X3),-0.758,0.396
CHMP3 (UniProt Q9Y3E7),-0.215,0.503
AFG3L2 (UniProt Q9Y4W6),-0.122,0.33
CD2AP (UniProt Q9Y5K6),-0.55,-0.758
SNX5 (UniProt Q9Y5X3),-0.36,0.293
TMED5 (UniProt Q9Y3A6),-0.221,-0.268
STRAP (UniProt Q9Y3F4),-1.29,0.208
TLN2 (UniProt Q9Y4G6),-0.00611,-0.256
PRRC2C (UniProt Q9Y520),–,-2.95
GIT1 (UniProt Q9Y2X7),-0.96,-1.01
RCL1 (UniProt Q9Y2P8),1.32,0.336
ORC6 (UniProt Q9Y5N6),-1.61,-0.641
OAS3 (UniProt Q9Y6K5),-0.475,-0.364
PRKAB1 (UniProt Q9Y478),-0.219,0.696
KNSTRN (UniProt Q9Y448),-1.4,-0.153
RRP7A (UniProt Q9Y3A4),-0.301,-0.08
COL4A3BP (UniProt Q9Y5P4),0.366,0.0916
TSC22D4 (UniProt Q9Y3Q8),-0.977,0.336

# Quoted at random: 2 records from the list.
Target,melting temperature shift (MBE1 concentration: 100 nM) [°C],melting temperature shift (MBE1 concentration: 1 uM) [°C]
STRAP (UniProt Q9Y3F4),-1.29,0.208
OAS3 (UniProt Q9Y6K5),-0.475,-0.364

# (further entries)

Target,melting temperature shift (MBE1 concentration: 100 nM) [°C],melting temperature shift (MBE1 concentration: 1 uM) [°C]
UniProt Q9Y5W9,0.849,0.421
LRCH1 (UniProt Q9Y2L9),-0.542,-0.173
TMED7 (UniProt Q9Y3B3),-0.806,-0.415
MRPS16 (UniProt Q9Y3D3),0.0513,0.0565
FAM96B (UniProt Q9Y3D0),-0.847,-0.108
KCTD3 (UniProt Q9Y597),-1.82,-3.79
ARL2BP (UniProt Q9Y2Y0),0.724,-0.226
UniProt Q9Y383,-0.708,-0.83
UniProt Q9Y3D5,-0.812,-0.503
MAP4K5 (UniProt Q9Y4K4),1.04,0.598
RTCB (UniProt Q9Y3I0),0.293,0.385
UniProt Q9Y2I8,-4.08,0.159
UFC1 (UniProt Q9Y3C8),-1.1,-1.19
UniProt Q9Y343,-1.85,-1.36
SUPT16H (UniProt Q9Y5B9),-0.186,-0.173
UniProt Q9Y535,-1.22,-0.863
UniProt Q9Y5J6,-4.51,1.59
THRAP3 (UniProt Q9Y2W1),-1.02,-1.2
FLVCR1 (UniProt Q9Y5Y0),-1.41,-0.272
UniProt Q9Y3M8,-0.0794,-1.7
UniProt Q9Y666,0.275,0.721
GMEB1 (UniProt Q9Y692),-2.33,-3.02
MRPS7 (UniProt Q9Y2R9),-0.11,-0.244
NUMBL (UniProt Q9Y6R0),-0.42,1.36

Target,melting temperature shift (MBE1 concentration: 100 nM) [°C],melting temperature shift (MBE1 concentration: 1 uM) [°C]
RPL36 (UniProt Q9Y3U8),-0.478,2.32
HYOU1 (UniProt Q9Y4L1),-1.21,0.53
DHRS7 (UniProt Q9Y394),-1.1,0.319
YARS2 (UniProt Q9Y2Z4),-0.621,-0.256
UniProt Q9Y2K6,0.134,-3.03
PEX16 (UniProt Q9Y5Y5),1.43,1.68
MTO1 (UniProt Q9Y2Z2),0.339,-3.75
FBXO7 (UniProt Q9Y3I1),-0.841,-1.01
WDR7 (UniProt Q9Y4E6),0.995,1.68
UniProt Q9Y3E2,-0.59,1.69
MRPS2 (UniProt Q9Y399),-0.179,0.376
KIF3A (UniProt Q9Y496),1.31,0.647
UniProt Q9Y2T7,0.537,-2.12
MTCH2 (UniProt Q9Y6C9),0.0244,-0.14
ACOT9 (UniProt Q9Y305),-0.241,-0.0335
MRPL11 (UniProt Q9Y3B7),-2.37,0.0448
YTHDF2 (UniProt Q9Y5A9),-0.147,0.336
UniProt Q9Y625,-2.46,2.22
MAP3K4 (UniProt Q9Y6R4),0.055,-0.495
SF3B6 (UniProt Q9Y3B4),0.977,0.824
GTF3C5 (UniProt Q9Y5Q8),-0.122,-0.397
FHOD1 (UniProt Q9Y613),-0.685,-0.487
RBM19 (UniProt Q9Y4C8),-0.128,-0.433
GMPPB (UniProt Q9Y5P6),-0.887,0.437

Target,melting temperature shift (MBE1 concentration: 100 nM) [°C],melting temperature shift (MBE1 concentration: 1 uM) [°C]
SUGT1 (UniProt Q9Y2Z0),-0.734,0.0183
UniProt Q9Y3L3,0.288,0.201
OARD1 (UniProt Q9Y530),-0.381,-0.837
RAD54L2 (UniProt Q9Y4B4),-2.63,-1.86
UniProt Q9Y2K2,-0.765,-0.305
AAR2 (UniProt Q9Y312),-1.94,-0.169
NDUFB9 (UniProt Q9Y6M9),-1.42,0.335
TELO2 (UniProt Q9Y4R8),-0.645,-0.767
PUS1 (UniProt Q9Y606),-0.179,-0.474
UniProt Q9Y5J7,0.315,0.484
UniProt Q9Y5W8,-2.45,-0.617
COMMD10 (UniProt Q9Y6G5),-1.43,0.44
PTRH2 (UniProt Q9Y3E5),-0.542,0.562
TNPO3 (UniProt Q9Y5L0),0.488,0.629
EPN1 (UniProt Q9Y6I3),0.0488,0.0916
UniProt Q9Y3D7,-1.82,-0.389
ALG5 (UniProt Q9Y673),-0.845,-0.157
SAR1B (UniProt Q9Y6B6),-1.1,-1.33
CHCHD2 (UniProt Q9Y6H1),-0.644,-1.08
SAMHD1 (UniProt Q9Y3Z3),-1.53,-0.335
UniProt Q9Y6E0,0.0134,-0.268
FAM21C (UniProt Q9Y4E1),1.17,-0.513
COG6 (UniProt Q9Y2V7),-0.259,-0.456
RABGAP1 (UniProt Q9Y3P9),0.427,0.488
